# Experimental data published in patent US6538008B1, “Combination of a selective NMDA NR2B antagonist and an opioid analgesic” (Merck Sharpe & Dohme Limited, priority 1998, dated 2003).
# Tested on: rotarod performance (motor co-ordination)
# Test: Motor co-ordination and behaviour, accelerating rotarod
# Settings: rotarod ID50 over ligation ID50
# Description: Anti-algesic activity was assessed using an assay of neuropathic pain in rats (sciatic nerve ligation) and in a carrageenan-induced hyperalgesia assay. Motor impairment was measured using an accelerating rotarod.
# For sciatic nerve ligation, male Sprague Dawley rats (180-220 g) were anaesthetised with isofluorane, the left sciatic nerve exposed and 4 chromic catgut (4.0) ligatures were tied loosely around the nerve (spaced 1-2 mm apart) immediately proximal to the point of trifurcation. In sham-operated animals, the same dissection was performed but without ligation. Responses to mechanical pressure were assessed 7 days after ligation using a modified Randall-Selitto algesiometer in which constant force of 40 mmHg was applied to the hind paw and the latency to struggle was recorded as the reaction time. Mechanical allodynia was defined as the difference in reaction time for sham and ligature rats. Reaction times for drug treated rats were expressed as a percentage of this response. Compounds were administered 1 h before the test. In the carrageenan-induced hyperalgesia assay, male Sprague Dawley rats (100-120 g) received an intraplantar injection of carrageenan (4.5 mg) and mechanical thresholds were determined 3 h later using a modified Ugo Basile Algesiometer. Control rats received saline (0.15 ml i.pl.). Hyperalgesia was defined as the difference in vocalisation threshold for saline- and carrageenan-injected rats. Paw pressure scores for drug-treated rats were expressed as a percentage of this response. Compounds were administered 2 h after carrageenan. To determine the effects of the compounds on motor co-ordination, male Sprague Dawley rats (160-180 g) were first trained to remain for 120 s on the rotarod apparatus revolving at 12 r.p.m. on the morning before the test. […] Lamotrigine, gabapentin and (±)-CP-101,606 were suspended in 0.5% methocel and administered orally (1 ml/kg). Ifenprodil, L-701.324, L-687,414 and (±)-Ro25-6981 were dissolved or suspended in 0.5% methocel and administered intraperitoneally (1 ml/kg). MK-801 was dissolved in distilled water and given i.p. (1 ml/kg). Doses of compounds refer to the free base.
# Male Sprague Dawley rats (100-120 g) received an intraplantar injection of carrageenan (4.5 mg) and mechanical thresholds were determined 3 h later using a modified Ugo Basile Algesiometer. Control rats received saline (0.15 ml i.pl.). Hyperalgesia was defined as the difference in vocalisation threshold for saline- and carrageenan-injected rats. Paw pressure scores for drug-treated rats were expressed as a percentage of this response. Compounds were administered 2 h after carrageenan. To determine the effects of morphine and (±)-Ro25-6981 on motor co-ordination, male Sprague Dawley rats (160-180 g) were first trained to remain for 120 s on the rotarod apparatus revolving at 12 r.p.m. on the morning before the test.
# (±)-Ro25-6981 was suspended in 0.5% methocel and administered intraperitoneally (1 ml/kg). Morphine HCl was dissolved in saline and given subcutaneously (1 ml/kg). Doses of compounds refer to the free base.
row,Molecule,Ratio Rotarod/Rat Ligation (ID50 motor impairment / ID50 inhibition of allodynia)
1,"NCC1(CC(=O)O)CCCCC1 [Gabapentin, gabapentin]",1.5
2,"CC(C(O)c1ccc(O)cc1)N1CCC(Cc2ccccc2)CC1 (stereo not shown) [Ifenprodil, ifenprodil]",5.3
3,"C[C@@H]1CN(O)C(=O)[C@@H]1N [L-687,414]",5.4
4,"O=c1[nH]c2cc(Cl)ccc2c(O)c1-c1cccc(Oc2ccccc2)c1 [L-701,324]",0.7
5,"Nc1nnc(-c2cccc(Cl)c2Cl)c(N)n1 [Lamotrigine, lamotrigine]",> 45
6,C[C@]12N[C@H](Cc3ccccc31)c1ccccc12 [MK-801],1.1
7,"(±)-CP-101,606",> 49
